Results: the supplement of paper PMC4604168 (melanoma cell lines)
This is one part of the list. Repeats are few or missing, and single values can be far off.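 Cells were imaged in 1,536-well plates, and nuclei stained with an antibody against cleaved PARP were counted against all DNA-stained nuclei to give the apoptosis fraction. Screening doses were chosen to leave most cells alive, and resting and induced cleaved-PARP levels differ strongly between cell lines.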

Each compound was assayed on A2058 (assay: cleaved PARP positive nuclei fraction relative to DMSO control; melanoma cells; higher = more apoptosis). Conditions: library dose: low library concentration; 72 h.
For COc1ccc2c(c1)CCC1C2CCC2(C)C(NCCCCCCN3C(=O)C=CC3=O)CCC12 (stereo unspecified) + Oc1cc(-c2nc(-c3ccccc3)[nH]c2-c2ccncc2)ccc1Cl [L779450] (first compound 0.4 µM, partner dose 0.2 µM), the “cleaved PARP positive nuclei fraction” value was 135%.
In the case of CN(C)S(=O)(=O)c1ccc2c(c1)/C(=C/c1cc3c([nH]1)CCCC3)C(=O)N2 + O=C(O)C(=O)Nc1sc2c(c1C(=O)O)CCNC2 [TCS401] (first compound 0.4 µM, partner dose 1.66667 µM), the “cleaved PARP positive nuclei fraction” value is reported as 64.7%.
With COc1ccc(-c2ccc3c(N4CCOCC4)nc(N4C[C@@H](C)O[C@@H](C)C4)nc3n2)cc1CO + COc1cc(N2CCC(N3CCN(C)CC3)CC2)ccc1Nc1ncc(Cl)c(Nc2ccccc2S(=O)(=O)C(C)C)n1 [NVP-TAE684] (first compound 0.02 µM, partner dose 0.08 µM) the “cleaved PARP positive nuclei fraction” value was 313%.
COc1cc2c(Oc3ccc4[nH]c(C)cc4c3F)ncnc2cc1OCCCN1CCCC1 [cediranib] + Oc1cc(-c2nc(-c3ccccc3)[nH]c2-c2ccncc2)ccc1Cl [L779450] (first compound 0.4 µM, partner dose 0.2 µM) was tested, and the “cleaved PARP positive nuclei fraction” value was 168%.
In the case of O=C(Nc1ccccc1)c1cc([N+](=O)[O-])ccc1Cl + Oc1cc(-c2nc(-c3ccccc3)[nH]c2-c2ccncc2)ccc1Cl [L779450] (first compound 2 µM, partner dose 0.2 µM), the “cleaved PARP positive nuclei fraction” value is reported as 131%.
With O=C(Nc1ccccc1)c1cc([N+](=O)[O-])ccc1Cl + CCCCCCCCCCCC1=C(O)C(=O)C=C(O)C1=O [Embelin] (first compound 2 µM, partner dose 1.2 µM) the “cleaved PARP positive nuclei fraction” value was 15.2%.
